Results reported in patent US10016383B2, “Inhibitors of metallo-β-lactamase-enzymes” (McMaster University, priority 2013, dated 2018).

Tested on: E. coli BW25113
Assay: Microdilution checkerboard / MIC
Type: cell-based
Settings: Escherichia coli, meropenem alone, carbapenem sensitive strain
Experimental: FIC values were determined by standard methods^27 setting up checkerboards with 8 concentrations of each meropenem and AM-A in serial ½ dilutions. Experiments were done in duplicate and the mean used for calculation. The MIC for each compound was the lowest concentration of compound showing no growth. The FIC for each compound was calculated as the concentration of the compound in the presence of co-compound for a well showing no growth, divided by the MIC for that compound. The FIC index is the sum of the two FICs.

C[C@@H](O)[C@H]1C(=O)N2C(C(=O)O)=C(S[C@@H]3CN[C@H](C(=O)N(C)C)C3)[C@H](C)[C@H]12 [meropenem, reference compound]
MIC: 0.008 to 0.016 µg/mL
